# According to the supplement of paper PMC8728848:
# The other results are listed elsewhere or left out.
# B1: PX14343G-pdi-535-24-535 (Parabacteroides distasonis) (protein)
# chain: LDTVPKDQLAPSTTWQTEADAKGFIVGCYKDLLDGNTLLYLDCGSDIGYNNFPWEGFRPWGDGSLSSSNPGQILYDYKSIRKANTFLENVDKVTFSSDAVKANYVAQAKAIRAYKYFLMNWWYGGVPIISSYSSADEAKVERNTEQEVRDYIAKDLDEALAGIAEAPEARGYIAKGAVLAIKMREALYYGDWQKAKDAAKAIIDLKQYELDPDYTNLFKVSGVDSKEIILADQNIETLDGLGTIGQMYNNVDQGWSSIVPTQNLVDMYEMSDGLTKEESKTYDAKHPFANRDPRMAMTILYPGRDWRGDVLNTLDEKLQDGTVNKNFPTYTDNASKSALTWAKYLDPMDQYGDVWSSGACPIVFRYAEVLLTYAEAANELSGPSDEIYGYLNQIRQRVGMGEVDKAKYGTKDKLRELIRRERTVELAGEGLRRADIVRWQEDGKMLAEKVMNGDLLRVTGTINYGESEPTKRAEITGTAVIETRQFSSRNRYLPIPQTSMDKNPNLKQNPGY
# Experiments:
# Experiment in all cases: glycan array binding signal (z-score within array); higher = stronger binding
# Settings in all cases: glycan notation: IUPAC condensed, linker removed
# [1] = molecular target: Gal(b1-3)GlcNAc(b1-6)[Gal(b1-3)]GalNAc
# In short: (§1)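 The binding signal is a Z-score computed within each array. Data were drawn from 3228 arrays in the Consortium for Functional Glycomics database, restricted to those with a known protein sequence. Scores were averaged over arrays of the same protein sequence at different concentrations or buffers, and over linkers, and negative values can be taken as non-binding.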
# Gal(b1-3)GlcNAc6S = molecular target: Gal(b1-3)GlcNAc6S
# In short: as §1
# [2] = molecular target: Gal(b1-3)[Fuc(a1-4)]GlcNAc
# In short: as §1
# [3] = molecular target: Gal(b1-3)[Fuc(a1-4)]GlcNAc(b1-2)Man
# In short: as §1
# [4] = molecular target: Gal(b1-3)[Fuc(a1-4)]GlcNAc(b1-2)Man(a1-3)[Gal(b1-3)[Fuc(a1-4)]GlcNAc(b1-2)Man(a1-6)]Man(b1-4)GlcNAc(b1-4)[Fuc(a1-6)]GlcNAc
# In short: as §1
# [5] = molecular target: Gal(b1-3)[Fuc(a1-4)]GlcNAc(b1-3)Gal(b1-3)[Fuc(a1-4)]GlcNAc
# In short: as §1
# [6] = molecular target: Gal(b1-3)[Fuc(a1-4)]GlcNAc(b1-3)Gal(b1-4)[Fuc(a1-3)]GlcNAc
# In short: as §1
# [7] = molecular target: Gal(b1-3)[Fuc(a1-4)]GlcNAc(b1-6)GalNAc
# In short: as §1
# [8] = molecular target: Gal(b1-3)[GlcNAc(b1-6)]GalNAc
# In short: as §1
# [9] = molecular target: Gal(b1-3)[Neu5Ac(a2-6)]GalNAc
# In short: as §1
# [10] = molecular target: Gal(b1-3)[Neu5Ac(a2-6)]GlcNAc(b1-4)Gal(b1-4)Glc
# In short: as §1
# [11] = molecular target: Gal(b1-3)[Neu5Ac(b2-6)]GalNAc
# In short: as §1
# Gal(b1-4)Gal = molecular target: Gal(b1-4)Gal
# In short: as §1
# [12] = molecular target: Gal(b1-4)GalNAc(a1-3)[Fuc(a1-2)]Gal(b1-4)GlcNAc
# In short: as §1
# [13] = molecular target: Gal(b1-4)GalNAc(b1-3)[Fuc(a1-2)]Gal(b1-4)GlcNAc
# In short: as §1
# Gal(b1-4)Glc = molecular target: Gal(b1-4)Glc
# In short: as §1
# Gal(b1-4)Glc6S = molecular target: Gal(b1-4)Glc6S
# In short: as §1
# Gal(b1-4)GlcNAc = molecular target: Gal(b1-4)GlcNAc
# In short: as §1
# [14] = molecular target: Gal(b1-4)GlcNAc(a1-6)Gal(b1-4)GlcNAc
# In short: as §1
# Gal(b1-4)GlcNAc(b1-2)Man = molecular target: Gal(b1-4)GlcNAc(b1-2)Man
# In short: as §1
# [15] = molecular target: Gal(b1-4)GlcNAc(b1-2)Man(a1-3)Man(b1-4)GlcNAc(b1-4)GlcNAc
# In short: as §1
# [16] = molecular target: Gal(b1-4)GlcNAc(b1-2)Man(a1-3)[Gal(b1-4)GlcNAc(b1-2)Man(a1-6)]Man(b1-4)GlcNAc(b1-4)GlcNAc
# In short: as §1
# [17] = molecular target: Gal(b1-4)GlcNAc(b1-2)Man(a1-3)[Gal(b1-4)GlcNAc(b1-2)Man(a1-6)]Man(b1-4)GlcNAc(b1-4)[Fuc(a1-6)]GlcNAc
# In short: as §1
# [18] = molecular target: Gal(b1-4)GlcNAc(b1-2)Man(a1-3)[Gal(b1-4)GlcNAc(b1-2)Man(a1-6)][Gal(b1-4)GlcNAc(b1-4)]Man(b1-4)GlcNAc(b1-4)[Fuc(a1-6)]GlcNAc
# In short: as §1
# [19] = molecular target: Gal(b1-4)GlcNAc(b1-2)Man(a1-3)[Gal(b1-4)GlcNAc(b1-2)Man(a1-6)][GlcNAc(b1-4)]Man(b1-4)GlcNAc(b1-4)[Fuc(a1-6)]GlcNAc
# In short: as §1
# [20] = molecular target: Gal(b1-4)GlcNAc(b1-2)Man(a1-3)[GlcNAc(b1-2)Man(a1-6)]Man(b1-4)GlcNAc(b1-4)GlcNAc
# In short: as §1
# [21] = molecular target: Gal(b1-4)GlcNAc(b1-2)Man(a1-3)[GlcNAc(b1-4)][Gal(b1-4)GlcNAc(b1-2)Man(a1-6)]Man(b1-4)GlcNAc(b1-4)GlcNAc
# In short: as §1
# [22] = molecular target: Gal(b1-4)GlcNAc(b1-2)Man(a1-3)[Man(a1-6)]Man(b1-4)GlcNAc(b1-4)GlcNAc
# In short: as §1
# [23] = molecular target: Gal(b1-4)GlcNAc(b1-2)Man(a1-6)Man(b1-4)GlcNAc(b1-4)GlcNAc
# In short: as §1
# [24] = molecular target: Gal(b1-4)GlcNAc(b1-2)Man(a1-6)[GlcNAc(b1-2)Man(a1-3)]Man(b1-4)GlcNAc(b1-4)GlcNAc
# In short: as §1
# [25] = molecular target: Gal(b1-4)GlcNAc(b1-2)Man(a1-6)[Man(a1-3)]Man(b1-4)GlcNAc(b1-4)GlcNAc
# In short: as §1
# [26] = molecular target: Gal(b1-4)GlcNAc(b1-2)[Gal(b1-4)GlcNAc(b1-4)]Man(a1-3)[Gal(b1-4)GlcNAc(b1-2)Man(a1-6)]Man(b1-4)GlcNAc(b1-4)GlcNAc
# In short: as §1
# [27] = molecular target: Gal(b1-4)GlcNAc(b1-2)[Gal(b1-4)GlcNAc(b1-4)]Man(a1-3)[Gal(b1-4)GlcNAc(b1-2)[Gal(b1-4)GlcNAc(b1-6)]Man(a1-6)]Man(b1-4)GlcNAc(b1-4)GlcNAc
# In short: as §1
# [28] = molecular target: Gal(b1-4)GlcNAc(b1-2)[Gal(b1-4)GlcNAc(b1-4)]Man(a1-3)[GlcNAc(b1-4)][Gal(b1-4)GlcNAc(b1-2)Man(a1-6)]Man(b1-4)GlcNAc(b1-4)GlcNAc
# In short: as §1
# [29] = molecular target: Gal(b1-4)GlcNAc(b1-2)[Gal(b1-4)GlcNAc(b1-4)]Man(a1-3)[GlcNAc(b1-4)][Gal(b1-4)GlcNAc(b1-2)[Gal(b1-4)GlcNAc(b1-6)]Man(a1-6)]Man(b1-4)GlcNAc(b1-4)GlcNAc
# In short: as §1
# [30] = molecular target: Gal(b1-4)GlcNAc(b1-2)[Gal(b1-4)GlcNAc(b1-6)]Man(a1-6)[Gal(b1-4)GlcNAc(b1-2)Man(a1-3)]Man(b1-4)GlcNAc(b1-4)GlcNAc
# In short: as §1
# [31] = molecular target: Gal(b1-4)GlcNAc(b1-2)[Gal(b1-4)GlcNAc(b1-6)]Man(a1-6)[Gal(b1-4)GlcNAc(b1-2)Man(a1-3)]Man(b1-4)GlcNAc(b1-4)[Fuc(a1-6)]GlcNAc
# In short: as §1
binder,measurement,setting,value
B1,glycan array binding signal (z-score),[1],0.402
same,glycan array binding signal (z-score),Gal(b1-3)GlcNAc6S,-0.626
same,glycan array binding signal (z-score),[2],0.04
same,glycan array binding signal (z-score),[3],-0.295
same,glycan array binding signal (z-score),[4],0.312
same,glycan array binding signal (z-score),[5],-0.411
same,glycan array binding signal (z-score),[6],-0.484
same,glycan array binding signal (z-score),[7],-0.389
same,glycan array binding signal (z-score),[8],0.043
same,glycan array binding signal (z-score),[9],-0.295
same,glycan array binding signal (z-score),[10],-1.11
same,glycan array binding signal (z-score),[11],0.251
same,glycan array binding signal (z-score),Gal(b1-4)Gal,-0.782
same,glycan array binding signal (z-score),[12],-0.868
same,glycan array binding signal (z-score),[13],-0.339
same,glycan array binding signal (z-score),Gal(b1-4)Glc,-0.172
same,glycan array binding signal (z-score),Gal(b1-4)Glc6S,0.157
same,glycan array binding signal (z-score),Gal(b1-4)GlcNAc,-0.549
same,glycan array binding signal (z-score),[14],0.739
same,glycan array binding signal (z-score),Gal(b1-4)GlcNAc(b1-2)Man,-0.304
same,glycan array binding signal (z-score),[15],-1.1
same,glycan array binding signal (z-score),[16],-0.376
same,glycan array binding signal (z-score),[17],-0.363
same,glycan array binding signal (z-score),[18],-0.426
same,glycan array binding signal (z-score),[19],-0.515
same,glycan array binding signal (z-score),[20],-0.027
same,glycan array binding signal (z-score),[21],-0.997
same,glycan array binding signal (z-score),[22],0.32
same,glycan array binding signal (z-score),[23],-0.576
same,glycan array binding signal (z-score),[24],0.595
same,glycan array binding signal (z-score),[25],0.38
same,glycan array binding signal (z-score),[26],-0.511
same,glycan array binding signal (z-score),[27],-0.46
same,glycan array binding signal (z-score),[28],-0.359
same,glycan array binding signal (z-score),[29],-0.759
same,glycan array binding signal (z-score),[30],-0.615
same,glycan array binding signal (z-score),[31],0.224

# Reformatted: entries from further up
binder	measurement	setting	value
B1	glycan array binding signal (z-score)	[1]	0.402
same	glycan array binding signal (z-score)	Gal(b1-3)GlcNAc6S	-0.626
same	glycan array binding signal (z-score)	[2]	0.04
